System: contractions induced by LTD4 on isolated guinea-pig trachea
Assay: Antagonism of contractions induced by LTD4 on isolated guinea-pig trachea in vitro (Schild analysis)
Details: A′/A = agonist concentration ratio with and without antagonist; B = negative logarithm of antagonist concentration
Procedure: J. Physiol. Pharmacol. 67 (1989): 17-28], with slight modifications. […] The results were expressed as the effect as a percentage of the maximum contraction induced by 300 μM acetylcholine.

O=C(NC(Cc1ccc(OCc2ccc3ccccc3n2)cc1)C(=O)O)c1ccc2ccccc2n1 (racemic) [Compound 1, O-(2-quinolinylmethyl)-N-quinaldoyl-D,L-tyrosine]
Equations of the straight lines (Schild regression): log (A′/A − 1) = 9.78 − 1.24B

O=C(NC(Cc1ccc(OCc2ccc3ccc(F)cc3n2)cc1)C(=O)O)c1ccc2ccccc2n1 (racemic) [Compound 17, O-(7-fluoro-2-quinolinylmethyl)-N-quinaldoyl-D,L-tyrosine]
Equations of the straight lines (Schild regression): log (A′/A − 1) = 3.75 − 0.44B

O=C(NC(Cc1ccc(OCc2ccc3ccc(F)cc3n2)cc1)C(=O)O)c1cc2ccccc2cn1 (stereo not drawn) [Compound 22]
Equations of the straight lines (Schild regression): log (A′/A − 1) = 5.2 − 0.59B

From patent US6605722B2, “Tyrosine derivatives with anti-leukotrienen activity” (Rotta Research Laboratorium S.p.A., priority 2000, dated 2003)
